Source: publication PMC11045811
These are yes or no findings as the source states them, for the method shown. For some of these results: Binding seen in cells or lysates may run through a third protein. Some binding calls cover weakened binding; strength is not graded here. Sequences can lack the tags named with a protein. One block for each binder: values may come before it.

Assays:
[1] = target: human CaSR C129S + C131S (CSCS) double mutant with Flag or HA and SNAP tags (human) (UniProt P41180); test: non-reducing SDS-PAGE, fluorescent-labelled blot; HEK293 cells 24 h after transfection; surface receptors labelled with 100 nM SNAP-Surface 649; lysed in 50 mM Tris-HCl pH 7.4, 150 mM NaCl, 1% NP-40, 0.5% sodium deoxycholate, 0.1% SDS; SDS-PAGE (8%) without DTT (reducing conditions: 100 mM DTT)
[2] = target: human CaSR CSCS + S132C (C129S + C131S + S132C) with Flag or HA and SNAP tags (human) (UniProt P41180); test: as above
[3] = target: human CaSR C129S + C131S (CSCS), Flag-SNAP-tagged, with Rluc or YFP at the C-terminus (human) (UniProt P41180); test: FRET or BRET; BRET saturation in HEK293 cells: constant amount of Rluc-tagged receptor (0.2 ug plasmid), increasing amount of YFP-tagged receptor (0-1 ug); HBS buffer, 37 C, coelenterazine H 5 uM
[4] = target: T1, wild-type human calcium-sensing receptor (CaSR) with Flag or HA and SNAP tags (human), P41180; test: non-reducing SDS-PAGE, fluorescent-labelled blot; HEK293 cells 24 h after transfection; surface receptors labelled with 100 nM SNAP-Surface 649; lysed in 50 mM Tris-HCl pH 7.4, 150 mM NaCl, 1% NP-40, 0.5% sodium deoxycholate, 0.1% SDS; SDS-PAGE (8%) without DTT (reducing conditions: 100 mM DTT); settings: remark: other sources report otherwise
T1 chain: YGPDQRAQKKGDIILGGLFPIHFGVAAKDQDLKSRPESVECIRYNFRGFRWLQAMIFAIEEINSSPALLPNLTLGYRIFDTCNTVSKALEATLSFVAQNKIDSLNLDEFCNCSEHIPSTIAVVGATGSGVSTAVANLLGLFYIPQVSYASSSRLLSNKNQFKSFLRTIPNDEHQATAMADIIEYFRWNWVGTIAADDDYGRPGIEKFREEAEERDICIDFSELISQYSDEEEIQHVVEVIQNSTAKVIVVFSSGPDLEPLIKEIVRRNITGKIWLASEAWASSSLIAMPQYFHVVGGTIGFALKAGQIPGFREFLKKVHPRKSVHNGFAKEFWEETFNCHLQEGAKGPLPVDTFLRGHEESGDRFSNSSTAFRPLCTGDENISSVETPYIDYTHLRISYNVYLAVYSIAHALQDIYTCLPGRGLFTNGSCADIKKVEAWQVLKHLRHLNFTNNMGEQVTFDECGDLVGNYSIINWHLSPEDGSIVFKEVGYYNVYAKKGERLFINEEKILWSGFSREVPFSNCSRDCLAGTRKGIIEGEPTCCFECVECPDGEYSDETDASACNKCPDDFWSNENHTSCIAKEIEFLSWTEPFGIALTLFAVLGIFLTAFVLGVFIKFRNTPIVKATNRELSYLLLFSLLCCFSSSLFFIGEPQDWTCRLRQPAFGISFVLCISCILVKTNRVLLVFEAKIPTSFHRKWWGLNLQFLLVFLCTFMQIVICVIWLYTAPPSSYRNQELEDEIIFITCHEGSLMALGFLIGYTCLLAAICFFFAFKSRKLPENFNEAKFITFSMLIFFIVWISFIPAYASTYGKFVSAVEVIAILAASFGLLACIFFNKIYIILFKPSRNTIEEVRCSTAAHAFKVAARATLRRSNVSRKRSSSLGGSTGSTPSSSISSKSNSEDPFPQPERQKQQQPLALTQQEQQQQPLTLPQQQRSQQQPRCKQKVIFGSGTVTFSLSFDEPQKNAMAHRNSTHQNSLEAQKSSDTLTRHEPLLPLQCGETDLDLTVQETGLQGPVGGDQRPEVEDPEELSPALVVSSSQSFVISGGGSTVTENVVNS

binding [1]: binds
B1: human CaSR C129S + C131S (CSCS) double mutant with Flag or HA and SNAP tags (receptor, UniProt P41180-1 20-1078)
chain: YGPDQRAQKKGDIILGGLFPIHFGVAAKDQDLKSRPESVECIRYNFRGFRWLQAMIFAIEEINSSPALLPNLTLGYRIFDTCNTVSKALEATLSFVAQNKIDSLNLDEFSNSSEHIPSTIAVVGATGSGVSTAVANLLGLFYIPQVSYASSSRLLSNKNQFKSFLRTIPNDEHQATAMADIIEYFRWNWVGTIAADDDYGRPGIEKFREEAEERDICIDFSELISQYSDEEEIQHVVEVIQNSTAKVIVVFSSGPDLEPLIKEIVRRNITGKIWLASEAWASSSLIAMPQYFHVVGGTIGFALKAGQIPGFREFLKKVHPRKSVHNGFAKEFWEETFNCHLQEGAKGPLPVDTFLRGHEESGDRFSNSSTAFRPLCTGDENISSVETPYIDYTHLRISYNVYLAVYSIAHALQDIYTCLPGRGLFTNGSCADIKKVEAWQVLKHLRHLNFTNNMGEQVTFDECGDLVGNYSIINWHLSPEDGSIVFKEVGYYNVYAKKGERLFINEEKILWSGFSREVPFSNCSRDCLAGTRKGIIEGEPTCCFECVECPDGEYSDETDASACNKCPDDFWSNENHTSCIAKEIEFLSWTEPFGIALTLFAVLGIFLTAFVLGVFIKFRNTPIVKATNRELSYLLLFSLLCCFSSSLFFIGEPQDWTCRLRQPAFGISFVLCISCILVKTNRVLLVFEAKIPTSFHRKWWGLNLQFLLVFLCTFMQIVICVIWLYTAPPSSYRNQELEDEIIFITCHEGSLMALGFLIGYTCLLAAICFFFAFKSRKLPENFNEAKFITFSMLIFFIVWISFIPAYASTYGKFVSAVEVIAILAASFGLLACIFFNKIYIILFKPSRNTIEEVRCSTAAHAFKVAARATLRRSNVSRKRSSSLGGSTGSTPSSSISSKSNSEDPFPQPERQKQQQPLALTQQEQQQQPLTLPQQQRSQQQPRCKQKVIFGSGTVTFSLSFDEPQKNAMAHRNSTHQNSLEAQKSSDTLTRHEPLLPLQCGETDLDLTVQETGLQGPVGGDQRPEVEDPEELSPALVVSSSQSFVISGGGSTVTENVVNS
modifications: SNAP-Surface 649 on the SNAP tag

binding [3]: binds
B3: human CaSR C129S + C131S (CSCS), Flag-SNAP-tagged, with Rluc or YFP at the C-terminus (receptor, UniProt P41180-1 20-1078)
chain: YGPDQRAQKKGDIILGGLFPIHFGVAAKDQDLKSRPESVECIRYNFRGFRWLQAMIFAIEEINSSPALLPNLTLGYRIFDTCNTVSKALEATLSFVAQNKIDSLNLDEFSNSSEHIPSTIAVVGATGSGVSTAVANLLGLFYIPQVSYASSSRLLSNKNQFKSFLRTIPNDEHQATAMADIIEYFRWNWVGTIAADDDYGRPGIEKFREEAEERDICIDFSELISQYSDEEEIQHVVEVIQNSTAKVIVVFSSGPDLEPLIKEIVRRNITGKIWLASEAWASSSLIAMPQYFHVVGGTIGFALKAGQIPGFREFLKKVHPRKSVHNGFAKEFWEETFNCHLQEGAKGPLPVDTFLRGHEESGDRFSNSSTAFRPLCTGDENISSVETPYIDYTHLRISYNVYLAVYSIAHALQDIYTCLPGRGLFTNGSCADIKKVEAWQVLKHLRHLNFTNNMGEQVTFDECGDLVGNYSIINWHLSPEDGSIVFKEVGYYNVYAKKGERLFINEEKILWSGFSREVPFSNCSRDCLAGTRKGIIEGEPTCCFECVECPDGEYSDETDASACNKCPDDFWSNENHTSCIAKEIEFLSWTEPFGIALTLFAVLGIFLTAFVLGVFIKFRNTPIVKATNRELSYLLLFSLLCCFSSSLFFIGEPQDWTCRLRQPAFGISFVLCISCILVKTNRVLLVFEAKIPTSFHRKWWGLNLQFLLVFLCTFMQIVICVIWLYTAPPSSYRNQELEDEIIFITCHEGSLMALGFLIGYTCLLAAICFFFAFKSRKLPENFNEAKFITFSMLIFFIVWISFIPAYASTYGKFVSAVEVIAILAASFGLLACIFFNKIYIILFKPSRNTIEEVRCSTAAHAFKVAARATLRRSNVSRKRSSSLGGSTGSTPSSSISSKSNSEDPFPQPERQKQQQPLALTQQEQQQQPLTLPQQQRSQQQPRCKQKVIFGSGTVTFSLSFDEPQKNAMAHRNSTHQNSLEAQKSSDTLTRHEPLLPLQCGETDLDLTVQETGLQGPVGGDQRPEVEDPEELSPALVVSSSQSFVISGGGSTVTENVVNS

Further lines, the binder ahead of its results:

B2: human CaSR CSCS + S132C (C129S + C131S + S132C) with Flag or HA and SNAP tags (receptor, UniProt P41180-1 20-1078)
chain: YGPDQRAQKKGDIILGGLFPIHFGVAAKDQDLKSRPESVECIRYNFRGFRWLQAMIFAIEEINSSPALLPNLTLGYRIFDTCNTVSKALEATLSFVAQNKIDSLNLDEFSNSCEHIPSTIAVVGATGSGVSTAVANLLGLFYIPQVSYASSSRLLSNKNQFKSFLRTIPNDEHQATAMADIIEYFRWNWVGTIAADDDYGRPGIEKFREEAEERDICIDFSELISQYSDEEEIQHVVEVIQNSTAKVIVVFSSGPDLEPLIKEIVRRNITGKIWLASEAWASSSLIAMPQYFHVVGGTIGFALKAGQIPGFREFLKKVHPRKSVHNGFAKEFWEETFNCHLQEGAKGPLPVDTFLRGHEESGDRFSNSSTAFRPLCTGDENISSVETPYIDYTHLRISYNVYLAVYSIAHALQDIYTCLPGRGLFTNGSCADIKKVEAWQVLKHLRHLNFTNNMGEQVTFDECGDLVGNYSIINWHLSPEDGSIVFKEVGYYNVYAKKGERLFINEEKILWSGFSREVPFSNCSRDCLAGTRKGIIEGEPTCCFECVECPDGEYSDETDASACNKCPDDFWSNENHTSCIAKEIEFLSWTEPFGIALTLFAVLGIFLTAFVLGVFIKFRNTPIVKATNRELSYLLLFSLLCCFSSSLFFIGEPQDWTCRLRQPAFGISFVLCISCILVKTNRVLLVFEAKIPTSFHRKWWGLNLQFLLVFLCTFMQIVICVIWLYTAPPSSYRNQELEDEIIFITCHEGSLMALGFLIGYTCLLAAICFFFAFKSRKLPENFNEAKFITFSMLIFFIVWISFIPAYASTYGKFVSAVEVIAILAASFGLLACIFFNKIYIILFKPSRNTIEEVRCSTAAHAFKVAARATLRRSNVSRKRSSSLGGSTGSTPSSSISSKSNSEDPFPQPERQKQQQPLALTQQEQQQQPLTLPQQQRSQQQPRCKQKVIFGSGTVTFSLSFDEPQKNAMAHRNSTHQNSLEAQKSSDTLTRHEPLLPLQCGETDLDLTVQETGLQGPVGGDQRPEVEDPEELSPALVVSSSQSFVISGGGSTVTENVVNS
modifications: SNAP-Surface 649 on the SNAP tag
binding [2]: binds

B4: wild-type human calcium-sensing receptor (CaSR) with Flag or HA and SNAP tags, P41180-1 20-1078 (receptor)
chain: YGPDQRAQKKGDIILGGLFPIHFGVAAKDQDLKSRPESVECIRYNFRGFRWLQAMIFAIEEINSSPALLPNLTLGYRIFDTCNTVSKALEATLSFVAQNKIDSLNLDEFCNCSEHIPSTIAVVGATGSGVSTAVANLLGLFYIPQVSYASSSRLLSNKNQFKSFLRTIPNDEHQATAMADIIEYFRWNWVGTIAADDDYGRPGIEKFREEAEERDICIDFSELISQYSDEEEIQHVVEVIQNSTAKVIVVFSSGPDLEPLIKEIVRRNITGKIWLASEAWASSSLIAMPQYFHVVGGTIGFALKAGQIPGFREFLKKVHPRKSVHNGFAKEFWEETFNCHLQEGAKGPLPVDTFLRGHEESGDRFSNSSTAFRPLCTGDENISSVETPYIDYTHLRISYNVYLAVYSIAHALQDIYTCLPGRGLFTNGSCADIKKVEAWQVLKHLRHLNFTNNMGEQVTFDECGDLVGNYSIINWHLSPEDGSIVFKEVGYYNVYAKKGERLFINEEKILWSGFSREVPFSNCSRDCLAGTRKGIIEGEPTCCFECVECPDGEYSDETDASACNKCPDDFWSNENHTSCIAKEIEFLSWTEPFGIALTLFAVLGIFLTAFVLGVFIKFRNTPIVKATNRELSYLLLFSLLCCFSSSLFFIGEPQDWTCRLRQPAFGISFVLCISCILVKTNRVLLVFEAKIPTSFHRKWWGLNLQFLLVFLCTFMQIVICVIWLYTAPPSSYRNQELEDEIIFITCHEGSLMALGFLIGYTCLLAAICFFFAFKSRKLPENFNEAKFITFSMLIFFIVWISFIPAYASTYGKFVSAVEVIAILAASFGLLACIFFNKIYIILFKPSRNTIEEVRCSTAAHAFKVAARATLRRSNVSRKRSSSLGGSTGSTPSSSISSKSNSEDPFPQPERQKQQQPLALTQQEQQQQPLTLPQQQRSQQQPRCKQKVIFGSGTVTFSLSFDEPQKNAMAHRNSTHQNSLEAQKSSDTLTRHEPLLPLQCGETDLDLTVQETGLQGPVGGDQRPEVEDPEELSPALVVSSSQSFVISGGGSTVTENVVNS
modifications: here or on the partner: SNAP-Surface 649 on the SNAP tag; SNAP-Surface 649 on the SNAP tag
binding [4]: binds
